Laboratory results published in patent US12358863B2, “Nitrogen-containing derivative of substituted phenol hydroxy acid ester, and preparation and use thereof” (priority 2019, dated 2025).

test system: Kunming mice; assay type: in vivo, mouse; details: Table 3; at dose 2×ED50, tail vein injection, male Kunming mice
Method: For each drug, 10 male Kunming mice weighing 20-35 g were included, and the dose of each drug was 2×ED50 in mice. After the compound of the present invention and fospropofol were respectively dissolved in saline, the resultant solutions were injected via the mouse tail vein. For propofol, a glucose dilution (5 mg/mL) of a commercially available emulsion of diprivan was selected and injected via the mouse tail vein; while, for another substituted phenol molecule (CAS:1637741-58-2), its 30% fat emulsion was prepared as a medicated emulsion. The concentration of the injectable solution of the compound according to the present invention was 10-15 mg/mL, and the concentration of the injectable solution of fospropofol was 55 mg/mL, while the concentration of the injectable solution of another substituted phenol molecule (CAS:1637741-58-2) was 1 mg/mL. After injection of tested drug, the occurrence time T1 of righting reflex after its disappearance, the duration T2 for the disappearance of righting reflex (i.e. anesthesia time) and the time T3 required for the animal to recover completely after waking up were recorded. Complete recovery refers to the recovery of autonomous activities of animals to the level before administration. In the experiment, animals were not given respiratory support such as oxygen inhalation or intubation.

| Compound | Propofol intake [mg/kg] |
| --- | --- |
| CC(C)c1cccc(C(C)C)c1OC(=O)COC(=O)[C@H](C)N [Compound 4] | 25 |
| CC(C)c1cccc(C(C)C)c1OC(=O)COC(=O)CN1CCOCC1 [Compound 23] | 27.3 |
| CC(C)c1cccc(C(C)C)c1OC(=O)COC(=O)CN1CCOCC1 [Compound 27] | 24.6 |
| CC(C)c1cccc(C(C)C)c1OC(=O)COC(=O)CN1CCC1.Cl [Compound 37] | 23.7 |
| CC(C)c1cccc(C(C)C)c1OC(=O)COC(=O)[C@@H](C)N(C)C.Cl [Compound 41] | 24.3 |
| CC(C)c1cccc(C(C)C)c1OC(=O)COC(=O)CN1CCCC1.Cl [Compound 42] | 24.8 |
| CC(C)C[C@@H](N)C(=O)OCC(=O)Oc1c(C(C)C)cccc1C(C)C.Cl [Compound 48] | 27.4 |
| CC(C)c1cccc(C(C)C)c1OCOP(=O)(O)O [Fospropofol, fospropofol, reference compound] | 90 |

same assay, conditions: Table 4; at dose 2×ED50, tail vein injection, male Kunming mice

| Compound | Intake of (R)-2-cyclopropylethyl-6-isopropylphenol [mg/kg] |
| --- | --- |
| CC(C)c1cccc([C@H](C)C2CC2)c1O [(R)-2-cyclopropylethyl-6-isopropylphenol, reference compound] | 3.2 |
| CC(C)c1cccc([C@H](C)C2CC2)c1OC(=O)COC(=O)CN1CCOCC1.Cl [Compound 17] | 3.2 |
| CC(C)c1cccc([C@H](C)C2CC2)c1OC(=O)COC(=O)CN1CCOCC1 [Compound 19] | 3.3 |
| CC(C)c1cccc([C@H](C)C2CC2)c1OC(=O)COC(=O)CN1CCCCC1.Cl [Compound 53] | 3.4 |
| CC(C)c1cccc([C@@H](C)C2CC2)c1OC(=O)COC(=O)CN1CCCC1.Cl [Compound 55] | 3.5 |

same assay, conditions: mouse, in vivo

| Compound | Propofol intake [mg/kg] |
| --- | --- |
| CC(C)c1cccc(C(C)C)c1OC(=O)COC(=O)CN [Compound 1] | 27 |
| CNCC(=O)OCC(=O)Oc1c(C(C)C)cccc1C(C)C [Compound 2] | 28 |
| CC(C)c1cccc(C(C)C)c1OC(=O)COC(=O)CN(C)C [Compound 3] | 24.4 |
| CC(C)c1cccc(C(C)C)c1OC(=O)COC(=O)CN1CCN(C)CC1 [Compound 7] | 28.4 |
| CC(C)c1cccc(C(C)C)c1OC(=O)COC(=O)CN1CCOCC1 [Compound 22] | 26 |
| CC(C)c1cccc(C(C)C)c1OC(=O)COC(=O)CN1CCCCC1 [Compound 29] | 26.2 |
| CC(C)c1cccc(C(C)C)c1O [Propofol, reference compound] | 25 |
